This note sets out measurements from article PMC12040169 (PLOS Biology, 2025).

The list shows a part of the results.

The subject of this test is T1, CTL2-GFP (C. trachomatis L2/434/Bu, GFP-expressing).
T1 construct: L2/434/Bu, GFP-expressing
More on the design: species or system HeLa; Intracellular C. trachomatis growth in HeLa cells, bulk GFP fluorescence relative to DMSO. The conditions noted are these: bulk GFP, single well; 28.5 h, 10 µM; inhibitor.
Take `Cc1nn(C)c(C)c1CN(C)C(=O)CCC(C)N1CCCC1` (stereo not drawn) [CBK282001]: the “% of control remaining” value worked out at 92.5926%.

Consider `CN(Cc1nc(-c2ccncc2)no1)S(=O)(=O)c1ccc(Br)cc1` [CBK268598], for which the “% of control remaining” value was 108.223%. `COc1ccc(CNc2cncc(-c3cncc(OC)c3)n2)cc1` [CBK065388]: the “% of control remaining” value is recorded as 163.447%. As for `COc1ccc(C(NC(=O)c2ccc(Cn3nc(C)cc3C)o2)c2ccccc2)cc1` (stereo not drawn) [CBK285578], the figure is 123.317%; as for `Cc1c(-c2ccc(N(C)C)nc2)c(C(F)(F)F)nn1C` [CBK307320], 153.65%; as for `Cc1n[nH]c(=O)c2nc(-c3ccc(=O)[nH]n3)[nH]c12` [CBK008745], 118.322%. `Cc1[nH]c2ccccc2c1C(=O)CSc1nc2ccccc2o1` [CBK266339]: the “% of control remaining” value amounted to 144.106%. Take `Cc1cc(NS(=O)(=O)c2ccc(NC(=O)C(c3ccccc3)c3ccccc3)cc2)no1` [CBK085112]: the “% of control remaining” value is reported as 104.634%.

Take `COc1ccc(C(NC(=O)CCc2ccccc2)c2ccc3cccnc3c2O)cc1` (stereo not drawn) [CBK293942]: the “% of control remaining” value is on record as 124.032%.

As for `Cc1nnc(SCC(=O)Nc2cc(C(F)(F)F)ccc2N2CCOCC2)o1` [CBK266815], the “% of control remaining” value is listed as 129.66%. `O=C(O)C[S+]([O-])c1ccccc1C(=O)O` (stereo not drawn) [CBK263244]: the “% of control remaining” value is 109.223%. Consider `Cn1ccc(CNCc2c(Br)cc(F)c(F)c2N2CCCCC2)n1` [CBK304763], for which the “% of control remaining” value is reported as 107.584%. Take `CN(CCCNC(=O)/C=N/O)CCCC(C)(C)C` [CBK288480]: the “% of control remaining” value is 136.611%. Turning to `Brc1cccc(CSc2nnc(COc3ccccc3)n2Cc2ccccc2)c1` [CBK268250], the “% of control remaining” value amounted to 84.3773%. As for `Cn1cc(-c2nc(C3CCCCCN3C(=O)c3cc(Cl)c[nH]3)no2)cn1` (stereo not drawn) [CBK306396], the “% of control remaining” value came to 93.471%. Take `Fc1cccc(-c2nccnc2NCC2CC2)c1` [CBK036767]: the “% of control remaining” value is reported as 119.959%. For `O=C(O)CCC(=O)N1CCN(S(=O)(=O)c2ccc(F)cc2)CC1` [CBK286956], the “% of control remaining” value came to 141.639%. As for `CC(=O)c1ccc(NC(=O)Cn2cnc3c(sc4ncccc43)c2=O)cc1` [CBK287773], the “% of control remaining” value is given as 129.14%. As to `NS(=O)(=O)c1ccc(CNC(=O)C(Sc2ccccc2)c2ccccc2)cc1` (stereo not drawn) [CBK264355], the “% of control remaining” value is given as 132.7%.

With `Cn1c(SCc2c(Cl)cccc2[N+](=O)[O-])nnc1-c1ccc(NC(=O)c2ccccc2Cl)cc1` [CBK264983], the “% of control remaining” value is listed as 117.542%. For the molecule `O=C(Cc1cccc(O)c1)N1CCCC1c1nc2ccccc2[nH]1` (stereo not drawn) [CBK282346], the “% of control remaining” value worked out at 121.774%. For the molecule `O=C(NCc1nc2ccccc2s1)c1ccc2c(c1)OCCO2` [CBK295325], the “% of control remaining” value is reported as 128.457%. In the case of `CCN(CC)CCN1CCN(c2cc(-c3ccsc3)ncn2)CC1` [CBK036973], the “% of control remaining” value stood at 157.489%. Turning to `Cn1ccnc1CN1CCC2(C/C=C/Cc3ccccc3OCC(=O)NCCNC2=O)CC1` [CBK292180], the “% of control remaining” value came to 127.763%.

Take `CCN1CCN(C(=O)C2CCN(S(=O)(=O)c3ccc(Br)cc3)CC2)CC1` [CBK266881]: the “% of control remaining” value came out at 135.342%.

`CC(C)(O)C#Cc1ccc(C(=O)NC(CSCc2ccccc2)C(=O)O)s1` (stereo not drawn) [CBK267705]: the “% of control remaining” value is reported as 145.109%. Take `O=C(O)c1cccc(NC(=O)C2CCCCC2C(=O)O)c1` (stereo not drawn) [CBK261538]: the “% of control remaining” value came to 107.196%. With `CN(CC(=O)N1CCCCC1)S(=O)(=O)c1cc(Cl)ccc1Cl` [CBK091826], the “% of control remaining” value is 111.027%. As to `CCNC(=O)N1C(CC(=O)OCC)C(=O)NC2CCCCC21` (stereo not drawn) [CBK268030], the “% of control remaining” value was found to be 121.916%. For `O=c1[nH]nc2c(N3CCc4ccccc4C3)nccn12` [CBK288497] the value was 96.1023%; for `O=C1c2ccccc2C(=O)N1CCc1c[nH]c2ccc(O)cc12` [CBK086794], 138.285%; for `Cc1nn(Cc2nnn(CC(=O)O)n2)c(C)c1Br` [CBK009457], 129.779%.

In the case of `COCCOc1ccc(C(=O)N[C@@H]2CNCCC[C@H]2O)cc1` [CBK289071], the “% of control remaining” value turned out to be 145.88%. As for `O=C(COc1ccc(-c2ccccc2)cc1)N/N=C/c1ccncc1` [CBK262210], the “% of control remaining” value came out at 94.0363%.

`Cn1c(SCC(=O)Nc2c(F)cc(F)cc2Br)nnc1-c1cnccn1` [CBK267584]: the “% of control remaining” value is 137.413%.

For `COC(=O)c1ccc(F)c(NC(=O)C2CCCC2)c1` [CBK296640], the “% of control remaining” value came to 157.941%.

Consider `O=C(CN1C(=O)c2ccc([N+](=O)[O-])cc2C1=O)Nc1ccc(O)cc1C(=O)O` [CBK263456], for which the “% of control remaining” value worked out at 132.645%. Consider `O=C(Nc1ccccc1N1CCOCC1)c1ccc(OCc2ccccc2)cc1` [CBK265992], for which the “% of control remaining” value is on record as 159.767%. With `CC(=O)Nc1ccccc1NC(=O)CCCN1C(=O)CCC1=O` [CBK267681], the “% of control remaining” value came to 103.864%.

On to `CN(C)CC1CCCN(C(=O)c2cc3cc(Cl)ccc3n2C)C1` (stereo not drawn) [CBK282121], for which the “% of control remaining” value is given as 116.381%. Regarding `O=C(CCN1CCN(CCO)CC1)Nc1ccc(F)c(F)c1` [CBK264316], the “% of control remaining” value was 100%. On to `Cc1ccc(OCC(=O)N2CCN(S(=O)(=O)c3ccc([N+](=O)[O-])cc3)CC2)cc1` [CBK264267], for which the “% of control remaining” value is 109.257%. With `COc1cc(C)c(Nc2cc(-c3ccc(C(N)=O)cc3)ncn2)cc1OC` [CBK090784], the “% of control remaining” value is recorded as 154.132%. As for `O=c1cc(C(F)(F)F)c2ccc(OCc3ccc(Cl)cc3)cc2o1` [CBK058200], the figure is 117.821%. As to `Cc1nccn1CCCn1cncc1-c1ccc2c(c1)CC(C)N2C` (stereo not drawn) [CBK281818], the “% of control remaining” value is given as 102.839%. For `Cc1n[nH]c(C)c1CCCCCOc1ccccc1F` [CBK025736C] the value was 118.117%; for `O=c1[nH]c(=O)n([C@H]2C[C@@H](O)[C@@H](CO)O2)cc1CO` [CBK201332], 120.409%. For `Cc1csc2nc(CN3CCN(C(=O)c4ccccc4)CC3)cc(=O)n12` [CBK305019] the value was 94.7736%; for `C[C@H](Cn1nc2c(cc1=O)CCCCC2)NC(=O)Cc1cccs1` [CBK284548], 89.1043%. Consider `CC(=O)c1sc(NC(=O)c2ccccc2Oc2ccccc2)nc1C` [CBK287314], for which the “% of control remaining” value was determined as 138.108%. As to `O=C(NC1CCCC1)c1ccc2c(=O)[nH]cnc2c1` [CBK287990], the “% of control remaining” value is on record as 127.825%.
